Test results: US20120202801A1, “METHODS FOR TREATING BREAST CANCER” (priority 2009, published 2012)
At least one structure is not confirmed: it was looked up by name or label, or the drawing left a doubt.

Legend:
[1] = system: human VEGF121 and VEGF165; test: Intra-tumor and pathologic plasma human VEGF in HT1080 xenografts, Compound 1205 (studies #21, #23); type: in vivo, mice; conditions: FIG. 27B
Source text: Experimental Design. HT1080 cells (5×10^6 cells/mice) were implanted subcutaneously into male athymic nude mice. Treatment with vehicle alone or Compound 1205 was initiated when the median tumor volume was approximately 311±88 mm^3. Table 7 and Table 9 (study design #21 and #23) provide the study design for assessing tumor and plasma pathologic VEGF concentrations—each group in each study included eight (8) mice. When the tumors in vehicle-treated mice had reached the target size of ˜1200 mm^3 for study #21 and ˜1500 mm^3 for study #23, all mice in the study were sacrificed, and excised tumors were homogenized in buffer containing protease inhibitors. Both intra-tumor and pathologic plasma human VEGF levels were measured using an ELISA that recognizes human VEGF121 and VEGF165. Intra-tumor VEGF levels were normalized to the total tumor protein concentration and pathologic plasma VEGF levels were expressed in pg/mL. Because smaller tumors produce less VEGF per mg of tumor protein, intra-tumor VEGF levels were normalized to tumor size.

[2] = system: soluble VEGF121 and VEGF165 isoforms; test: ELISA of soluble VEGF121/165 production in HeLa cells under hypoxia or normoxia; type: cell-based, human; conditions: 48 hours, FIG. 25
HT1080 xenografts = test: HT1080 xenograft tumor growth, Compound 1205, 1330 and Compound #10 (studies 21-24b); type: in vivo, mice; conditions: for growth of HT1080 tumor cells in vivo: study #24a, 10 mg/kg QD, FIG. 26
Source text: Experimental Design. HT1080 cells (5×10^6 cells/mouse) were implanted subcutaneously in male athymic nude mice. […] For comparison, Compound #10 was included in this study.

HT1080 cells = test: Cell cycle analysis by propidium iodide flow cytometry in HT1080 cells (% cells in S-phase); type: cell-based, human; conditions: HT1080, normoxic, 18 hours; Compound #10 0.3 nM to 100 nM, Compound 1205 10 nM
Method: Experimental Design. […] After treatment, cells were trypsinized, and stained with propidium iodide (PI) dye to measure DNA content of individual cells by flow cytometry. Output comprised histograms showing relative DNA content in 10,000 cells.
While compounds which cause greater than 20% of the cells to accumulate in S-phase at 100 nM are considered active, a larger percentage of cells may be accumulated in S-phase at lower doses depending on the Compound, as shown in FIG. 12 for example.

Row | SMILES | volume normalized intra-tumor human VEGF levels [1] | inhibition of stress-induced VEGF production [2] | lowest dose at which active (HT1080 xenografts; HT1080 xenograft) | growth of HT1080 tumor cells in vivo (HT1080 xenografts) | cell cycle distribution (HT1080 cells)
1 | O=C(Oc1ccc(Cl)cc1)N1CCc2c([nH]c3ccc(Cl)cc23)[C@@H]1c1ccc(OCC[C@H](O)CO)cc1 [Compound 1205] | significantly reduced | inhibit stress-induced VEGF production | 0.3 mg/kg | significantly delayed growth | induced a redistribution of the cycling characteristics of the cell population
2 | O=C(Oc1ccc(Cl)cc1)N1CCc2c([nH]c3ccc(Cl)cc23)[C@H]1c1ccc(OCC[C@H](O)CO)cc1 [Compound 1330] | – | – | – | overlapped with the growth of tumors in mice treated with 0.5% HPMC vehicle | –
